Measured values: publication PMC7972451
These are yes or no findings as the source states them, for the method shown. In cells and extracts the contact can be indirect. A yes stands for co-enrichment or nearness to the bait. Other partners may have been found. Tags and fused reporters may be left off the sequences shown.

Sequences of proteins named here, by UniProt entry; tags and fusion partners are left off. Residues count along the entry.
UniProt Q9Z2H5: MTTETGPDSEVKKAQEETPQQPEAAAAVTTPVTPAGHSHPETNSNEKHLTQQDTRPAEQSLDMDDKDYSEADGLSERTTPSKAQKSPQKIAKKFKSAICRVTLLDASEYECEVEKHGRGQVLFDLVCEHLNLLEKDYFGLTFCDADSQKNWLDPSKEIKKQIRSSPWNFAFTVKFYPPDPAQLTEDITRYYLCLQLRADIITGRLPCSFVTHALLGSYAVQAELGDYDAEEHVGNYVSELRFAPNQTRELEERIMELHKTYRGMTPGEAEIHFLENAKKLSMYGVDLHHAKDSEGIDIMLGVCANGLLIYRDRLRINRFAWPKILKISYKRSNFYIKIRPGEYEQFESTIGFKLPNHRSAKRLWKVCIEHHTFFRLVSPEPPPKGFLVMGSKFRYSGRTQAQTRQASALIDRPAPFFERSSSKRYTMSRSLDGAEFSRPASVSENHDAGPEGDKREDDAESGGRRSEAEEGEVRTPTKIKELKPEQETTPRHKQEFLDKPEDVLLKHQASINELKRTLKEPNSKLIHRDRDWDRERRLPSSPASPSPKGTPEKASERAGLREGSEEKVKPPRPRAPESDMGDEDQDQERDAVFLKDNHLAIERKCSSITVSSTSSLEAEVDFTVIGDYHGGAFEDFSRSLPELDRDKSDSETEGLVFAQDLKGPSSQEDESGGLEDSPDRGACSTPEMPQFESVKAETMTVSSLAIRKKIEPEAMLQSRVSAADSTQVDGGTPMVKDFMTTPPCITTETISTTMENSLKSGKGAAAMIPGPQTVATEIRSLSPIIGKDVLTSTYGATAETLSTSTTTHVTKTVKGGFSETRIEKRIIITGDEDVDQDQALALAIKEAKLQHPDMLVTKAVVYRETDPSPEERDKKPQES
UniProt P17427: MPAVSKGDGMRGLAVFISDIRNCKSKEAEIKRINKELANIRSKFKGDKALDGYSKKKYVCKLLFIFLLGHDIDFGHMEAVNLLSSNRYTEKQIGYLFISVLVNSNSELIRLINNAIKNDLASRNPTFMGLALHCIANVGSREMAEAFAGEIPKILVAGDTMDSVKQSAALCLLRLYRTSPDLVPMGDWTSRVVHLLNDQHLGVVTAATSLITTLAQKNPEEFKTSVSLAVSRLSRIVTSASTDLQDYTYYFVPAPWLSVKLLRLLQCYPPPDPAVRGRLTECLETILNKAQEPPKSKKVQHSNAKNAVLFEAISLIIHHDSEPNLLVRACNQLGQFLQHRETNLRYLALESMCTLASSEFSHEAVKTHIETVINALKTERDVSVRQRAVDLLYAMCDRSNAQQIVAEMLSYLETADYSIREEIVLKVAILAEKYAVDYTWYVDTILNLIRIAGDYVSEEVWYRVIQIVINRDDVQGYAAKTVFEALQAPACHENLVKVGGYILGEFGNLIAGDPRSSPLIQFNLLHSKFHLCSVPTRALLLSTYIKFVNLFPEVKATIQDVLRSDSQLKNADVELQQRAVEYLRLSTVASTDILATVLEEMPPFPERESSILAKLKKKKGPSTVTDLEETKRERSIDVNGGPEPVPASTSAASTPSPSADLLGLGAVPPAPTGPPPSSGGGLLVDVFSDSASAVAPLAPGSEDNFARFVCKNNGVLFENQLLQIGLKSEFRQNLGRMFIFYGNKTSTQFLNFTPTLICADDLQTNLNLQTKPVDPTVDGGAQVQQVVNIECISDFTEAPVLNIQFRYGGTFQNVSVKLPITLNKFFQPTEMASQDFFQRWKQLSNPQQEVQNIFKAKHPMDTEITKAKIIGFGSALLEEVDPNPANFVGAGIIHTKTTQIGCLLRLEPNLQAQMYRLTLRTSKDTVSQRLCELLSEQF
UniProt P46935: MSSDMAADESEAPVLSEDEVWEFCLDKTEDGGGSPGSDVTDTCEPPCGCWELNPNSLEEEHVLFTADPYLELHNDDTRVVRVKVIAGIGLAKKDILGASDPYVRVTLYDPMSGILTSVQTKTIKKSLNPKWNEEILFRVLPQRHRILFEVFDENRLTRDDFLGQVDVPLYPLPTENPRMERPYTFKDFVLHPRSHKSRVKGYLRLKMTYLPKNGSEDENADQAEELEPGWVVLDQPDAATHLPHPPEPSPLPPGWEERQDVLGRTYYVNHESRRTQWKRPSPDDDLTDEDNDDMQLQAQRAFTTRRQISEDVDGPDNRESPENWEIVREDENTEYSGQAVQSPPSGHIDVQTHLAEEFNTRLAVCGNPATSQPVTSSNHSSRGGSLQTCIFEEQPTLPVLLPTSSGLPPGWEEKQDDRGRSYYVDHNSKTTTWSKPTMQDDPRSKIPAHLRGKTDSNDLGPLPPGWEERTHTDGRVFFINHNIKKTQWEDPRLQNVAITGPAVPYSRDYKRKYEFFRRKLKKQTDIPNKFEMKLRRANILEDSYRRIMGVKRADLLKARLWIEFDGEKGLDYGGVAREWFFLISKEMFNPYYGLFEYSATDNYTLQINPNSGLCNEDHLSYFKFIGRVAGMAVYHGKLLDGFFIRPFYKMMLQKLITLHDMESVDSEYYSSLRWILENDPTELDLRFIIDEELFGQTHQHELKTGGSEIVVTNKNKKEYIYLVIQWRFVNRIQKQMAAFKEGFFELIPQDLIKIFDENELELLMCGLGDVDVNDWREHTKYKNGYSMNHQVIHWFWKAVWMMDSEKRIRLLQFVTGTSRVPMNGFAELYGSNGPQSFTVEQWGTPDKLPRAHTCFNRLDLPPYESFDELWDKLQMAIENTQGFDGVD
UniProt Q60737: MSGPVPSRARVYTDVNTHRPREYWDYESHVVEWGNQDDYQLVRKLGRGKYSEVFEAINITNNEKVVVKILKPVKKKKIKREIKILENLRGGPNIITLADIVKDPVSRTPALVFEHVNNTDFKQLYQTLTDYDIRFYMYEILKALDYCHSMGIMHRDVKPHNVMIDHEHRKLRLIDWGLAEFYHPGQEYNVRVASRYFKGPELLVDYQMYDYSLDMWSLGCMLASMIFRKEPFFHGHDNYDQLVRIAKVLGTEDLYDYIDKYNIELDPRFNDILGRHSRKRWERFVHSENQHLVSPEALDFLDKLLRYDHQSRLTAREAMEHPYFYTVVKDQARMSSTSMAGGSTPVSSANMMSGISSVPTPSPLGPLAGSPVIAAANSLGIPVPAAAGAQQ
UniProt Q9DBH0: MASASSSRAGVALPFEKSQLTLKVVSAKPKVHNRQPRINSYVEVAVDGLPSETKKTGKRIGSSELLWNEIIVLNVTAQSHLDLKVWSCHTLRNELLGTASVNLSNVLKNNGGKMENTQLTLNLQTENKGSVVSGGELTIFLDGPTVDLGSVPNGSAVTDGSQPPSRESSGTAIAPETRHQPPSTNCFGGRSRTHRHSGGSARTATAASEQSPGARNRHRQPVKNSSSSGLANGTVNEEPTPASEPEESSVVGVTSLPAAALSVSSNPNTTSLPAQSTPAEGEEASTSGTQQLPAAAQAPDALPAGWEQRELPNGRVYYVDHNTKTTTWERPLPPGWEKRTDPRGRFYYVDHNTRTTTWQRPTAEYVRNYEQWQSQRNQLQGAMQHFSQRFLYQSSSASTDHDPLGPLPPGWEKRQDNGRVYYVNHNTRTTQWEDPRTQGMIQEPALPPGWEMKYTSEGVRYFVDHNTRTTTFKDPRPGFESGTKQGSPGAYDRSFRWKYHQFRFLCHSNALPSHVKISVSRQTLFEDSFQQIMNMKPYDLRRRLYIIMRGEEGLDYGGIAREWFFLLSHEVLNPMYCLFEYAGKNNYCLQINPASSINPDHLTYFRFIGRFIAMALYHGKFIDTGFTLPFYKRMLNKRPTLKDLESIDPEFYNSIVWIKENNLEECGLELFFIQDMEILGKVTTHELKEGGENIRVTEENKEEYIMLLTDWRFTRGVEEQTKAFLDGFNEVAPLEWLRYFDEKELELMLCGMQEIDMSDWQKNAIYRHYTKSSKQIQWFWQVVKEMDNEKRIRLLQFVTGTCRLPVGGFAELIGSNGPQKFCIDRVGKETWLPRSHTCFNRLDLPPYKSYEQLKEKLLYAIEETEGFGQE
UniProt Q99KV1, residues 23-358: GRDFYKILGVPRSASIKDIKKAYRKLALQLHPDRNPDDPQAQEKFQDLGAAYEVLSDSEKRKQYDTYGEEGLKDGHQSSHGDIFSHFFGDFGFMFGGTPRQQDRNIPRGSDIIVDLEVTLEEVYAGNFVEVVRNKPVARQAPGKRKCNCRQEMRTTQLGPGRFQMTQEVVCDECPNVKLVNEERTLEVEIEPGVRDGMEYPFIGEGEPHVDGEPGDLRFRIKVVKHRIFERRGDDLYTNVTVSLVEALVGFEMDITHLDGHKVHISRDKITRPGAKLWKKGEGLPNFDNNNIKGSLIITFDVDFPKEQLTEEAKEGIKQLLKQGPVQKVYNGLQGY
UniProt P47708: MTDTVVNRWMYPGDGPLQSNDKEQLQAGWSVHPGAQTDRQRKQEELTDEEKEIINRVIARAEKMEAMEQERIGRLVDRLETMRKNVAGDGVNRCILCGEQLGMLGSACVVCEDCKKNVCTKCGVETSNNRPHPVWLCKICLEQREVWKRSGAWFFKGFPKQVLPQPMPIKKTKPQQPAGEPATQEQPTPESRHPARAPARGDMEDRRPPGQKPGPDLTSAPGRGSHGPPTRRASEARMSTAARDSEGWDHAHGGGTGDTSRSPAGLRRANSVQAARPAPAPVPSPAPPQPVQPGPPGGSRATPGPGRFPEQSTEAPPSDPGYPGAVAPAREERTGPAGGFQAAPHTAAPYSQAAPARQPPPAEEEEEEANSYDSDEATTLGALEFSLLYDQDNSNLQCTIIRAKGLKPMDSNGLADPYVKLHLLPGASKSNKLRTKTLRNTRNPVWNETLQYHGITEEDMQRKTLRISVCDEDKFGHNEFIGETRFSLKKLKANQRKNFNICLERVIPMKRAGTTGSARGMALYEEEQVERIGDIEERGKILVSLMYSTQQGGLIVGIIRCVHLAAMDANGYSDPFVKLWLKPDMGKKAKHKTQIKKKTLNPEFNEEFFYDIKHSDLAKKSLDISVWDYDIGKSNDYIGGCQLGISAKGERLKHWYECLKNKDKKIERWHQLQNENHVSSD
UniProt P27773, residues 25-505: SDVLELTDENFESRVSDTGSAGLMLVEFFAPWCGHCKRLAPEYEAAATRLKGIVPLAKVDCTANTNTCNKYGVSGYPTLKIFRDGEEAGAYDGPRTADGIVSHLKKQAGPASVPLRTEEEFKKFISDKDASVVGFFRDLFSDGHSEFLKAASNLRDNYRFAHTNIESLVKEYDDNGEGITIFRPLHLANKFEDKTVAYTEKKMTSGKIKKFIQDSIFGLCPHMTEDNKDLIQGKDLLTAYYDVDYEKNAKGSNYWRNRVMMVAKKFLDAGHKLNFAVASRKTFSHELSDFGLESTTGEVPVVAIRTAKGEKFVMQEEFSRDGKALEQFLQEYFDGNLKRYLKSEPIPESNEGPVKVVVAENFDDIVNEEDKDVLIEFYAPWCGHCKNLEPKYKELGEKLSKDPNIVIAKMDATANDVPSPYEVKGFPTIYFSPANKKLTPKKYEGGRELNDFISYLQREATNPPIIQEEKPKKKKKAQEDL
UniProt Q505F5: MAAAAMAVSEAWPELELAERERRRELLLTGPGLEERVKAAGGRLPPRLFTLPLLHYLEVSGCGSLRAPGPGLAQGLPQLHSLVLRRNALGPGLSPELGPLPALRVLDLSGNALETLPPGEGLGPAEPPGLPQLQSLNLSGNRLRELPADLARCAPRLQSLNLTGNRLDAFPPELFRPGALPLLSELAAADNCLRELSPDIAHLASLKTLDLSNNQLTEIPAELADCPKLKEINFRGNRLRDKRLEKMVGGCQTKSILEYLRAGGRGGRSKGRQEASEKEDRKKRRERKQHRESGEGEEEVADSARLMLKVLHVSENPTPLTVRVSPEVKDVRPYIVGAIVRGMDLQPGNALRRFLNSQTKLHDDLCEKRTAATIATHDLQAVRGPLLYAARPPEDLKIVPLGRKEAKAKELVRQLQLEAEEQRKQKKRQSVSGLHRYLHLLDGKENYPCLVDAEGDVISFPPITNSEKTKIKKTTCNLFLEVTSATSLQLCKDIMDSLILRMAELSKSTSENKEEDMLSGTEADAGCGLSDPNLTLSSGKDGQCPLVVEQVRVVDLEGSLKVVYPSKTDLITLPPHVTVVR

T1: GFP-tagged SUSD4 (mouse) (UniProt Q8BH32)
T1 sequence: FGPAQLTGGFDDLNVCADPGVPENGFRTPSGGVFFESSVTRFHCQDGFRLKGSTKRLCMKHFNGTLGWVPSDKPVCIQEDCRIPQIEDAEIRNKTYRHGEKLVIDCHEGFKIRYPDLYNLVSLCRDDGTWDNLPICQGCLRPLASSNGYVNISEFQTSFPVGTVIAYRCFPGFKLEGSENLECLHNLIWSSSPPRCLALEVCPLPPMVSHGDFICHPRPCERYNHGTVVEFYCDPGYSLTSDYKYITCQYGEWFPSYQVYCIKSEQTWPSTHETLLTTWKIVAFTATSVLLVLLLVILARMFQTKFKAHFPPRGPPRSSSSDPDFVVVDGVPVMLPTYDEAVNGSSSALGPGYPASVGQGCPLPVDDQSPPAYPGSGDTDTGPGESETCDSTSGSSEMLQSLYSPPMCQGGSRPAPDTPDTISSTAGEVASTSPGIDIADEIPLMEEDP

B1: Septin-5 (protein, UniProt Q9Z2Q6 1-369)
chain: MSTGLRYKSKLATPEDKQDIDKQYVGFATLPNQVHRKSVKKGFDFTLMVAGESGLGKSTLVHSLFLTDLYKDRKLLSAEERINQTVEILKHTVDIEEKGVKLKLTIVDTPGFGDAVNNSECWKPITDYVDQQFEQYFRDESGLNRKNIQDNRVHCCLYFISPFGHGLRPVDVGFMKALHEKVNIVPLIAKADCLVPSEIRKLKDRIREEIDKFGIHVYQFPECDSDEDEDFKQQDRELKESAPFAVIGSNTVVEAKGQRVRGRLYPWGIVEVENQAHCDFVKLRNMLIRTHMHDLKDVTCDVHYENYRAHCIQQMTSKLTQDSRMESPIPILPLPTPDAETEKLIRMKDEELRRMQEMLQKMKQQMQDQ
B2: Estradiol 17-beta-dehydrogenase 8 (protein, UniProt P50171 1-259)
chain: MASQLRLRSALALVTGAGSGIGRAISVRLAAEGAAVAACDLDGAAAQDTVRLLGSPGSEDGAPRGKHAAFQADVSQGPAARRLLEEVQACFSRPPSVVVSCAGITRDEFLLHMSEEDWDRVIAVNLKGTFLVTQAAAQALVSSGGRGSIINISSIIGKVGNIGQTNYASSKAGVIGLTQTAARELGRHGIRCNSVLPGFIATPMTQKMPEKVKDKVTAMIPLGHMGDPEDVADVVAFLASEDSGYITGASVEVSGGLFM
B3: Deoxyhypusine synthase (protein, UniProt Q3TXU5 1-369)
chain: MEGTPPGAAPSSALAAVLKHSSALPPESAQVQGYDFNRGVDYHALLDAYRTTGFQATNFGRAVQQVNAMIEKKLEPLAVDEDHHADLTQSRRPLTGCTIFLGYTSNLISSGIRETIRYLVQHNMVDVLVTTAGGVEEDLIKCLAPTYLGEFSLRGKELRESGINRIGNLLVPNDNYCKFEDWLMPILDQMVLEQNTEGVKWTPSKMISRLGKEINNPDSVYYWAHKNHIPVLSPALTDGSLGDMIFFHSYKNPGLVLDIVEDLRLINTQAIFAKRSGMIILGGGVVKHHIANANLMRNGADYAVYINTAQEFDGSDSGARPDEAVSWGKIRMDAQPVKVYADASLVFPLLVAETFAQKADAFRAEKNED
B4: Protein disulfide-isomerase A6 (protein, UniProt Q922R8 20-440)
chain: LYSSSDDVIELTPSNFNREVIQSDGLWLVEFYAPWCGHCQRLTPEWKKAATALKDVVKVGAVNADKHQSLGGQYGVQGFPTIKIFGANKNKPEDYQGGRTGEAIVDAALSALRQLVKDRLGGRSGGYSSGKQGRGDSSSKKDVVELTDDTFDKNVLDSEDVWMVEFYAPWCGHCKNLEPEWAAAATEVKEQTKGKVKLAAVDATVNQVLASRYGIKGFPTIKIFQKGESPVDYDGGRTRSDIVSRALDLFSDNAPPPELLEIINEDIAKKTCEEHQLCVVAVLPHILDTGAAGRNSYLEVLLKLADKYKKKMWGWLWTEAGAQYELENALGIGGFGYPAMAAINARKMKFALLKGSFSEQGINEFLRELSFGRGSTAPVGGGSFPTITPREPWDGKDGELPVEDDIDLSDVELDDLEKDEL
B5: Long-chain fatty acid – CoA ligase 6 (protein, UniProt Q91WC3 1-697)
chain: MQTQEILRILRLPELSDLGQFFRSLSATTLVSVGALAAVLAYWLTHRPKALQPPCNLLKQSEEVEDGGGARRSVIGGCTQLLTHYYDDARTMYQVFRRGLSISGNGPCLGFRKPEQPYQWLSYQEVAKRAEFLGSGLLQHDCKVGTEQFVGVFAQNRPEWIIAELACYTYSMVVVPLYDTLGPGSISYIINTADICTVIVDKPHKATLLLEHVERKETPGLKLVILMEPFEDALRERGKKCGVDIKSMQAIEDCGRENHHAPVPPRPDDLSIVCFTSGTTGNPKGAMLTHGNVVADFSGFLKVTEKVIFPRQDDVLISFLPLAHMFERVIQSVVYCHGGRVGFFQGDIRLLSDDMKALRPTIFPVVPRLLNRMYDKIFHQADTSLKRWLLEFAAKRKQAEVRSGIIRNNSIWDELFFNKIQASLGGHVRMIVTGAAPASPTVLGFLRAALGCQVYEGYGQTECTAGCTFTTPGDWTSGHVGAPLPCNHIKLVDAEELNYWTCKGEGEICVKGPNVFKGYLKDEDRTKEALDSDGWLHTGDIGKWLPEGTLKIIDRKKHIFKLAQGEYVAPEKIENIYIRSEPVAQIYVHGDSLKAFLVGIVVPDPEVMPSWAQKKGIEGTYQELCMKKELKKAILDDMVMLGKESGLHSFEQVKAIYIHCDMFSVQNGLLTPTLKAKRPELREYFKKQIEELYLVSV

Biological target: T1, GFP-tagged SUSD4 (mouse)
Assay: affinity purification with mass spectrometry; GFP-SUSD4 from transfected HEK293H lysate held on GFP-Trap beads and washed, incubated 3 hr at 4°C with lysate of cerebellar synaptosomes of P30 WT mice (10 mM Tris-HCl pH 7.5, 10 mM EDTA, 150 mM NaCl, 1% Triton X100); washes with lysis buffer plus 0.1% SDS; SDS-PAGE and LC-MS/MS; GFP as control bait; only the target purified

binding	Molecule
binds	Band 4.1-like protein 1 (from UniProt Q9Z2H5 1-879)
binds	AP-2 complex subunit alpha-2 (from UniProt P17427 1-938)
binds	E3 ubiquitin-protein ligase NEDD4-like (from UniProt Q8CFI0 1-1004) (enzyme)
binds	E3 ubiquitin-protein ligase NEDD4 (from UniProt P46935 1-887) (enzyme)
binds	DnaJ homolog subfamily A member 1 (from UniProt P63037 1-397)
binds	E3 ubiquitin-protein ligase Itchy (from UniProt Q8C863 1-864) (enzyme)
binds	Microtubule-associated protein 4 (from UniProt P27546 1-1125)
binds	Casein kinase II subunit alpha (from UniProt Q60737 1-391) (enzyme)
binds	NEDD4-like E3 ubiquitin-protein ligase WWP1 (from UniProt Q8BZZ3 1-918) (enzyme)
binds	NEDD4-like E3 ubiquitin-protein ligase WWP2 (from UniProt Q9DBH0 1-870) (enzyme)
binds	DnaJ homolog subfamily B member 11 (from UniProt Q99KV1 23-358)
binds	Rabphilin-3A (from UniProt P47708 1-681)
binds	Septin-11
binds	Protein disulfide-isomerase A3 (from UniProt P27773 25-505)
binds	Leucine-rich repeat-containing protein 47 (from UniProt Q505F5 1-581)
binds	B1
binds	B2
binds	B3
binds	B4
binds	B5
